In publication PMC12431657, “Discovery and mechanistic insights of dibenzoylmethane as a broad spectrum inhibitor of coronavirus” (PLOS Pathogens, 2025):
Where two headings read alike, the source gives them in different places. Among all 3,300 compounds or so, about 95 (3%) showed an effect of 50% or more. The list shows a part of the results.

Tested on: HCoV-229E
Parameters: species or system Huh-7; HTS, protection from HCoV-229E induced cell death, luminescent cell viability (CellCounting-Lite 2.0), inhibition rate
Conditions: 24 h post infection, 1 h compound pre-incubation, 10 µM, inhibitor

Compound	229E Inhibition rate	229E Inhibition rate (229E Inhibition rate, 24 h)
C[C@H]1[C@H](C)CC[C@]2(CO)CC[C@]3(C)C(=CC[C@@H]4[C@@]5(C)CC[C@H](O)C(C)(C)[C@@H]5CC[C@]43C)[C@H]12 [Uvaol]	5.7%	–
NC(CCSSCCC(N)C(=O)O)C(=O)O (centres unmarked) [4,4'-Disulfanediylbis(2-aminobutanoic acid)]	7.3%	–
OC[C@H]1O[C@H](O[C@H]2O[C@H](CO)[C@@H](O)[C@H](O)[C@H]2O)[C@H](O)[C@@H](O)[C@@H]1O [D-(+)-Trehalose]	–	16.9%
O=C(O)[C@H](O)c1ccccc1 [D-(-)-Mandelic acid]	7.5%	–
COc1ccc(C[C@H]2COC(=O)[C@@H]2Cc2ccc(O[C@@H]3O[C@H](CO)[C@@H](O)[C@H](O)[C@H]3O)c(OC)c2)cc1OC [Arctiin]	4.1%	–
Cn1c(=O)[nH]c(=O)c2[nH]cnc21 [3-Methylxanthine]	8.5%	–
COc1ccc(-c2cc(=O)c3c(O)c(OC)c(O[C@@H]4O[C@H](CO[C@@H]5O[C@@H](C)[C@H](O)[C@@H](O)[C@H]5O)[C@@H](O)[C@H](O)[C@H]4O)cc3o2)cc1 [Pectolinarin]	19%	–
CCO[C@@H]1O[C@H](C(=O)O)[C@@H](O)[C@H](O)[C@H]1O [Ethyl glucuronide]	10.6%	–
C[C@H](CCC(=O)NCC(=O)O)[C@H]1CC[C@H]2[C@@H]3[C@@H](O)C[C@@H]4C[C@H](O)CC[C@]4(C)[C@H]3CC[C@]12C [Glycoursodeoxycholic acid]	0%	–
CCCCCCCCCCCCCC(=O)O[C@@H]1[C@@H](C)[C@@]2(O)[C@@H](C=C(CO)C[C@]3(O)C(=O)C(C)=C[C@@H]23)[C@@H]2C(C)(C)[C@]12OC(C)=O [Phorbol 12-myristate 13-acetate]	2.8%	–
CO[C@H]1/C=C/O[C@@]2(C)Oc3c(C)c(O)c4c(O)c(cc(O)c4c3C2=O)NC(=O)/C(C)=C\C=C\[C@H](C)[C@H](O)[C@@H](C)[C@@H](O)[C@@H](C)[C@H](OC(C)=O)[C@@H]1C [Rifamycin (sodium)]	7.5%	–
C/C=C/c1ccc(OC)cc1 [Trans-Anethole]	–	7.8%
CC(C)=CCc1c(O)ccc(C(=O)/C=C/c2ccc(O)cc2)c1O [Isobavachalcone]	7.1%	–
O=C1C[C@@H](c2ccc(O[C@@H]3O[C@H](CO)[C@@H](O)[C@H](O)[C@H]3O)cc2)Oc2cc(O)cc(O)c21 [Choerospondin]	13.9%	–
C/C=C(/C)C(=O)Oc1c(OC)c(OC)cc2c1-c1c(cc(OC)c(OC)c1OC)C[C@](C)(O)[C@@H](C)C2 [Angeloylgomisin H]	0%	–
N[C@H]1C(O)O[C@H](CO)[C@@H](O)[C@@H]1O (some centres unmarked) [Glucosamine (sulfate)]	–	43.7%
O=C(O)[C@@H](O)[C@H](O)[C@H](O)[C@@H](O)C(=O)O [Mucic acid]	0%	–
CCCCC/C=C/C(=O)CCc1ccc(O)c(OC)c1 [Shogaol]	27.7%	–
CC(C)=CCC12Oc3cc(O)ccc3C1(O)Oc1cc(O)c([C@H]3C=C(C)C[C@@H](c4ccc(O)cc4O)[C@@H]3C(=O)c3ccc(O)cc3O)c(O)c1C2=O (some centres unmarked) [Sanggenon D]	23.4%	–

Compound	229E Inhibition rate	229E Inhibition rate (229E Inhibition rate, 24 h)
O=C(O)CCCCCCCCCCCCCCCCC(=O)O [Octadecanedioic acid]	18.5%	–
Oc1cc(O)c2c(c1)O[C@H](c1ccc(O)c(O)c1)[C@H](O)C2 [(-)-Epicatechin]	6.6%	–
COC(=O)C1=CO[C@@H](O[C@@H]2O[C@H](CO)[C@@H](O)[C@H](O)[C@H]2O)[C@H]2[C@@H]1[C@H](O)C[C@]2(C)OC(C)=O [Barlerin]	22.5%	–
COC(=O)CC(C)=O [Methyl acetylacetate]	22.8%	–
O=C(/C=C/c1ccccc1)c1ccccc1 [Chalcone]	–	18.8%
O=C(CCCCc1ccc2c(c1)OCO2)N1CCCCC1 [Tetrahydropiperine]	0%	–
COc1cc2c(=O)c(-c3ccc(O)cc3)coc2cc1O [Glycitein]	11.9%	–
O=C(OCc1ccccc1)c1ccccc1O [Benzyl salicylate]	24.5%	–
CC(CO)C(=O)O (centres unmarked) [3-Hydroxyisobutyric acid]	14.2%	–
NCCCCNCCCN [Spermidine]	–	8.1%
CC1(C)[C@@H]2CC[C@@]1(C)[C@H](O)C2 [Isoborneol]	29.1%	–
CN1CC(=O)NC1=O [N-Methylhydantoin]	20%	–
C/C=C(/C)C(=O)O[C@H]1c2cc(OC)c(OC)c(OC)c2-c2c(cc(OC)c(OC)c2OC)C[C@H](C)[C@]1(C)O [Angeloylgomisin Q]	42.2%	–
O=C1C=C(O)C(=O)c2ccccc21 [Lawsone]	0%	–
CC(=O)O[C@@H]1CC[C@@]2(C)[C@@H](CC[C@]3(C)[C@@H]2CC=C2[C@@H]4CC(C)(C)CC[C@]4(C)CC[C@]23C)[C@@]1(C)C(=O)O [3-O-Acetyl-α-boswellic acid]	21.9%	–
CC(C)=C[C@H]1C[C@](C)(O)[C@@H]2[C@H]3CC[C@@H]4[C@@]5(C)CC[C@H](O[C@@H]6O[C@H](CO)[C@@H](O)[C@H](O[C@@H]7O[C@H](CO)[C@@H](O)[C@H](O)[C@H]7O)[C@H]6O[C@@H]6O[C@@H](CO)[C@H](O)[C@H]6O)C(C)(C)[C@@H]5CC[C@@]4(C)[C@@]34CO[C@@]2(C4)O1 [Bacoside A3]	8.1%	–
COc1c(C)c(O)cc2[o+]c(-c3ccccc3)ccc12 [Dracorhodin perchlorate]	14.3%	–
CC(=O)OCc1cocc2c(C=O)ccc1-2 [Baldrinal]	25.5%	–
C[C@H](CC[C@@H](O[C@@H]1O[C@H](CO[C@@H]2O[C@H](CO)[C@@H](O)[C@H](O)[C@H]2O)[C@@H](O)[C@H](O)[C@H]1O[C@@H]1O[C@H](CO)[C@@H](O)[C@H](O)[C@H]1O)C(C)(C)O)[C@H]1CC[C@@]2(C)[C@@H]3CC=C4[C@@H](CC[C@H](O[C@@H]5O[C@H](CO[C@@H]6O[C@H](CO)[C@@H](O)[C@H](O)[C@H]6O)[C@@H](O)[C@H](O)[C@H]5O)C4(C)C)[C@]3(C)[C@H](O)C[C@]12C [Mogroside V]	0%	–

In another format: results already given
Compound | 229E Inhibition rate | 229E Inhibition rate (229E Inhibition rate, 24 h)
O=C(CCCCc1ccc2c(c1)OCO2)N1CCCCC1 [Tetrahydropiperine] | 0% | –
COc1cc2c(=O)c(-c3ccc(O)cc3)coc2cc1O [Glycitein] | 11.9% | –
